# In the supplement of paper PMC10470496:
# Where a name gives a salt, the structure may show the parent alone. Some of the results follow. Many values rest on one well or one pass, so single values are uncertain.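 Three clinical Candida auris isolates (clades III, IV and I) from the CDC resistance isolate bank were grown in RPMI-1640 at 35°C. Growth was background-corrected OD600 relative to same-plate vehicle-only wells. Hits required over 50% inhibition in at least two strains and a plate-corrected B-score above 0.1.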
# What was measured:
# Assay in all cases: growth relative to vehicle control (OD600 ratio) (fraction); higher = less inhibition
# Settings in all cases: 24 h
# [1] = system: C. auris AR-384
# [2] = system: C. auris AR-386
# [3] = system: C. auris AR-387
Compound,growth ([1]; 1 µM),growth ([1]; 10 µM),growth ([2]; 1 µM),growth ([2]; 10 µM),growth ([3]; 1 µM),growth ([3]; 10 µM)
CCCC[N+]1(C)[C@@H]2C[C@@H](OC(=O)[C@H](CO)c3ccccc3)C[C@H]1[C@@H]1O[C@@H]12 (some centres not stated) [Butylscopolamine Bromide],1.38,1.49,1.45,1.18,1.31,1.07
"NCC(O)c1ccc(O)cc1 (racemic) [(+,-)-Octopamine HCl]",0.89,0.74,0.62,0.64,0.76,0.66
COc1cc2c(cc1OC)[C@@]13CCN4CC5=CCO[C@H]6CC(=O)N2[C@H]1[C@H]6[C@H]5C[C@H]43 [Brucine sulfate salt hydrate],1.27,1.12,1.34,1.21,1.2,1.18
Nc1nc(N)nc(NC2CC2)n1 [Cyromazine],0.97,0.85,0.9,1.18,0.92,1.13
C[C@@H]1CC[C@H]2[C@@H](C)C(=O)O[C@@H]3O[C@@]4(C)CC[C@@H]1[C@]32OO4 [Artemisinin],0.61,0.43,0.46,0.75,0.69,0.6
O=C(O[C@H]1C[C@H]2CC[C@@H](C1)[N+]21CCCC1)C(O)(c1ccccc1)c1ccccc1 [Trospium chloride],1.13,0.88,0.93,1.41,0.81,0.78
CN1C(=O)CCS(=O)(=O)C1c1ccc(Cl)cc1 (configuration not stated) [Chlormezanone],1.15,1.05,0.95,1.07,0.76,1.13
